Assay results from PubChem BioAssay AID1347426 (Functional Genomics Laboratory (NCATS/FGL), 2020).
The whole screen tested about 31,000 sequences, of which about 1,400 (4.5%) were called active.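 The calls were made as follows: active = median seed-adjusted z-score above 1 or below -1; inactive = the rest.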 This is one part of the list.

Experiment: Novel Modifiers of Survival Motor Neuron (SMN) Protein: Gene Identification via Genome-wide siRNA Screen;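 also: luminescence tracks full-length SMN protein made from the SMN2 reporter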
Conditions: HEK293T SMN2-luciferase reporter, siRNA knockdown, 72 h; actives lie on both sides
In short: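 Steps: spot 1 pmol siRNA, add Lipofectamine RNAiMax in serum-free DMEM, seed HEK293T SMN2–luciferase reporter cells; incubate 72 h at 37 °C; add ONE-Glo; normalize luminescence to control siRNA, log10, MAD. Candidates: |MAD| > 1.0.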
For GAUUGUCUUUGUCAUCUCATT against CLDN6, the median seed-adjusted z-score was inactive: -0.281. In the case of GUACCAGACUUACACGGUUTT against MCF2L, the median seed-adjusted z-score is reported as inactive: -0.624. For AGAGCUUGUUGGACCUGAATT against KLF9, the median seed-adjusted z-score was inactive: 0.767. With GCUCCUAUCAACCCAAGUATT against WISP1 the median seed-adjusted z-score was inactive: -0.0121. With GAACGAUGAGGAGAACGAATT against PPWD1 the median seed-adjusted z-score was inactive: -0.341. In the case of GUAACCAAGCGAUACAGAUTT against RAE1, the median seed-adjusted z-score is reported as inactive: 0.929. In the case of GGUCCGAUGUUACGUCUAATT against TIGD4, the median seed-adjusted z-score is reported as inactive: -0.553. With GAAUGCUACAGUCAAGUUUTT against CDC5L the median seed-adjusted z-score was inactive: -0.628. In the case of UGACACCAGCCAAAGCGGATT against ZXDA, the median seed-adjusted z-score is reported as inactive: -0.0748. With AGGUCUGCAUUGUACAGAATT against STK32A the median seed-adjusted z-score was inactive: 0.052. With CAACUUCCGUAAUUAGGAATT against MCL1 the median seed-adjusted z-score was inactive: 0.225. With GAGGUAACAUAUUCCCGAATT against BRF2 the median seed-adjusted z-score was inactive: -0.00969. With GAGUCCACGUGUACUAUUUTT against SULT1E1 the median seed-adjusted z-score was inactive: 0.509. In the case of GGACCAGCGCAAUACACUATT against PLCD1, the median seed-adjusted z-score is reported as inactive: -0.0473. For GAUUCAAGGAAGUCACUAATT against TBX19, the median seed-adjusted z-score was inactive: 0.327. With GAGCUGGAAGUAUCCGAAATT against PARN the median seed-adjusted z-score was inactive: -0.0061. In the case of GCUACUACUUUGAUUACAATT against PSMD8, the median seed-adjusted z-score is reported as inactive: 0.0952. With GCAAAAUUGAGAACCACGATT against PKLR the median seed-adjusted z-score was inactive: 0.587. In the case of GCUUCCUCCUAUAUACUAATT against PNLIP, the median seed-adjusted z-score is reported as inactive: 0.385. In the case of GCACUUUCGUUUCAUCAUATT against TAF6L, the median seed-adjusted z-score is reported as inactive: 0. For GUGCAAUGGUUAACCCUAUTT against UBR3, the median seed-adjusted z-score was inactive: -0.894. In the case of GCAGGGUAUUUGUAAAGAUTT against BCL11A, the median seed-adjusted z-score is reported as inactive: 0.297. In the case of CAGCACUAUUAGACAGGAATT against ZBTB40, the median seed-adjusted z-score is reported as inactive: 0.187. For GAAGAGCAGUGUACCAUCATT against STARD8, the median seed-adjusted z-score was inactive: -0.135. With GAAUAUGCCUUGAUAGUUATT against ZFP36L2 the median seed-adjusted z-score was inactive: -0.0485. With GACCAGAUGUGGAUGUAAATT against MIB1 the median seed-adjusted z-score was inactive: 0. In the case of GCGGUUACAUGGGACUGGATT against RBPJL, the median seed-adjusted z-score is reported as inactive: 0.373. In the case of GAACUGAUAUCUGAAGAGATT against MLPH, the median seed-adjusted z-score is reported as active: -1.2. For GACCAGGUGUUUGUCCUGATT against ARHGDIG, the median seed-adjusted z-score was inactive: 0.227. For GAGUAUAGUUUGACUGUAATT against PCDH18, the median seed-adjusted z-score was inactive: -0.132. With AGAUGAAACUUCUACUGAATT against POLR2H the median seed-adjusted z-score was active: -2.74. With GGCUCAAUGUGGACUACAATT against HS3ST1 the median seed-adjusted z-score was active: 1.21. For CCAGCUAUUUGGUGAUGUUTT against LIMS1, the median seed-adjusted z-score was inactive: -0.313. For GGCUCUUCUAAGUUCCCGATT against PPP1R15B, the median seed-adjusted z-score was inactive: -0.407. With GGAAUAGACUCCUUCGUGATT against PRTN3 the median seed-adjusted z-score was inactive: -0.49. With CAGAGAUCCCGGUACAUGATT against SEC24C the median seed-adjusted z-score was inactive: 0.163. In the case of GCACUGGACUUCAAGCGAATT against PTH1R, the median seed-adjusted z-score is reported as inactive: -0.521. In the case of CGUCCCUGCUCAAAACCAATT against RNF39, the median seed-adjusted z-score is reported as inactive: 0.297. For CCAAUAAGCUCAUACAUCUTT against OMD, the median seed-adjusted z-score was inactive: 0. With CACUCUUUGUGGACCACUATT against SLC30A5 the median seed-adjusted z-score was inactive: 0.401. In the case of GCAUAGACUUCAGCAAGCATT against PRMT7, the median seed-adjusted z-score is reported as inactive: 0.204. In the case of UGUUGUACCUCUAAUGUCATT against GPR172B, the median seed-adjusted z-score is reported as inactive: 0.184. With GCAACUGUAUUGAUAUCAATT against FBLN1 the median seed-adjusted z-score was inactive: 0.518. In the case of GGACGCAGGUUUAACUUCUTT against PARL, the median seed-adjusted z-score is reported as inactive: -0.0659. In the case of GGAAAUAUGCGGCUACGGATT against NADSYN1, the median seed-adjusted z-score is reported as inactive: 0.217. With GCUGGUACAUAUCCUCGUATT against ARHGAP5 the median seed-adjusted z-score was inactive: -0.359. With GCAACUUGUGAAUCUAGGATT against VCAM1 the median seed-adjusted z-score was inactive: 0.19. In the case of CUGACGCAGAUGAACCGAATT against DSG1, the median seed-adjusted z-score is reported as inactive: 0.187. For GGAAAGAACAUCAAGAUUATT against PKM2, the median seed-adjusted z-score was inactive: -0.0312. With GGACAUACGCUGACAACCATT against PLCE1 the median seed-adjusted z-score was inactive: 0.597. For CCUUGUUUAUCAUAAGGGATT against ZNF613, the median seed-adjusted z-score was inactive: -0.189. With AGAUUCUGGUGGAACUGGATT against ZMYND17 the median seed-adjusted z-score was inactive: -0.00314. For ACGUGAACCUGCAGCAGAATT against HOXC13, the median seed-adjusted z-score was inactive: -0.318. For GUCUGAAUGGUAUGAGUUATT against SPAG16, the median seed-adjusted z-score was inactive: -0.0252. In the case of CGACAAUGCGGUCAACCUUTT against CD28, the median seed-adjusted z-score is reported as inactive: -0.993. With GCAAUGAGAGAAUACUAUATT against SMPDL3A the median seed-adjusted z-score was inactive: 0.49. In the case of GCAUCAACAAUAUCCGGGATT against FARSA, the median seed-adjusted z-score is reported as inactive: -0.158. With CAUCGGCAAUGGGAUUAUUTT against USP36 the median seed-adjusted z-score was inactive: -0.147. With CAUCUGUGGUUGUACCAGATT against EXT2 the median seed-adjusted z-score was inactive: -0.127. For CAACAGCUCUAGGACUCAATT against SFXN1, the median seed-adjusted z-score was inactive: -0.746. In the case of ACAAAUCACUGGUGAACAATT against RHOD, the median seed-adjusted z-score is reported as inactive: 0. In the case of CAUUACUCCUCAACAGGUATT against MPP6, the median seed-adjusted z-score is reported as inactive: -0.625. For CUCUCUUCCGAAUUUGUAATT against ZNF347, the median seed-adjusted z-score was inactive: 0. For GGUCAUUUUCGUGGAGAAATT against NFATC1, the median seed-adjusted z-score was inactive: 0.00712. For AGAACACGGUGGAUAAACUTT against SLC8A2, the median seed-adjusted z-score was inactive: 0. For CGACUAGUGUCAGAAAUCUTT against RUFY1, the median seed-adjusted z-score was inactive: 0.119. For CAGCUGCGUUAAUCCGUUUTT against AGTR2, the median seed-adjusted z-score was inactive: 0.204. With AGAGGUACCUGGAUUUCGATT against CYP46A1 the median seed-adjusted z-score was inactive: -0.00752. With CAUUCAAGUUUAAGCUCCATT against ERF the median seed-adjusted z-score was inactive: -0.0288. In the case of GACCAUUCGCGAUUUAGAATT against MYLK, the median seed-adjusted z-score is reported as inactive: 0.0226. With GAUCCACAGAGGAAAGGAATT against CYTH1 the median seed-adjusted z-score was inactive: 0.348. For GAUAUAUCCUGUCAAGAAATT against GTDC1, the median seed-adjusted z-score was inactive: 0.2. In the case of AAGGAAACCAGGUCCAUCATT against PHKG2, the median seed-adjusted z-score is reported as inactive: -0.371. For GGAUCAAGCUCACAAGGGATT against WDR36, the median seed-adjusted z-score was inactive: 0.00836. For GGAUUUUUGAUGUUCGGUUTT against AOC2, the median seed-adjusted z-score was inactive: 0. For CCAUCUAGCUUAUCGAUAUTT against DYRK3, the median seed-adjusted z-score was inactive: 0.358. With AAAUCAGUUUAACACCUUATT against ANK1 the median seed-adjusted z-score was inactive: -0.282. With GGUGAAUCAUUUGAACUGATT against RCL1 the median seed-adjusted z-score was inactive: 0.0807. In the case of GGACCAAACAACUCGAGUATT against MED12L, the median seed-adjusted z-score is reported as inactive: -0.0903. With CCAUCUUGCAAACCUAUAUTT against PDE7B the median seed-adjusted z-score was inactive: 0.0616. For GCAACAUGCAGAUAGGUUATT against PHF14, the median seed-adjusted z-score was inactive: 0.354. In the case of CCAGCUUCCUGUAAGAGCATT against LRIG1, the median seed-adjusted z-score is reported as inactive: 0.102. In the case of AGAUAGAAGGGACACCAUUTT against NDUFB3, the median seed-adjusted z-score is reported as inactive: -0.00982. With CCACGAACAAUAAUCCCAATT against KCNA3 the median seed-adjusted z-score was inactive: 0.213. In the case of GCCUGAACCGAGUAGAAGATT against KCNQ1, the median seed-adjusted z-score is reported as inactive: -0.0525. With CCCAGGAAGUUCUACUACATT against HS6ST1 the median seed-adjusted z-score was inactive: -0.436. For CCACUGAAUAUGUGCAGAATT against FBP2, the median seed-adjusted z-score was inactive: 0. In the case of GCAUCCGGAUUCUUGAUGATT against PGK2, the median seed-adjusted z-score is reported as inactive: -0.127. In the case of CAAGGUUGAUGGGCGUGUATT against HNRNPA3, the median seed-adjusted z-score is reported as inactive: 0.915. With GACCUCAACCAGAACGUAATT against ATP6V0A2 the median seed-adjusted z-score was inactive: 0.236. In the case of GCCUUAUUCGGAGUACUAUTT against MS4A7, the median seed-adjusted z-score is reported as inactive: 0.0794. For GAAACACGGGAGUACUAGATT against GPR98, the median seed-adjusted z-score was inactive: -0.509. In the case of GGAUGAGAAUAUGACUCGATT against MSH5, the median seed-adjusted z-score is reported as inactive: -0.444. For GCUCUACAUUGACAGUUGUTT against SEC22B, the median seed-adjusted z-score was inactive: -0.106. In the case of GCAAGGUGUUUCCCAUUAATT against TRIB1, the median seed-adjusted z-score is reported as inactive: 0. For CAAUCUCCUUAGAAAGCAATT against DOT1L, the median seed-adjusted z-score was inactive: 0.164. In the case of CCUGCUUGCUGAUUGCGUATT against SLC43A2, the median seed-adjusted z-score is reported as inactive: -0.202. In the case of GGUUAUAUCUCAUCUUUGATT against CDC2, the median seed-adjusted z-score is reported as inactive: 0.424. With AUCCAUUGAUAAUAAAGCATT against PABPC1 the median seed-adjusted z-score was inactive: -0.126. For CACCCACUAUUGUUCAAGATT against HCRTR1, the median seed-adjusted z-score was inactive: 0.739. With GUAACCAGCUGAAAACGCATT against MYNN the median seed-adjusted z-score was inactive: 0.0702. With GCCGAUGACUUGGUACUGATT against ELF3 the median seed-adjusted z-score was inactive: 0.43. In the case of GGAAGUCCAGUAUGCCUAUTT against BNC1, the median seed-adjusted z-score is reported as inactive: -0.631. In the case of GACUUACCGUUACCACGGATT against PDHA1, the median seed-adjusted z-score is reported as inactive: 0.346. For CAAAGGAGGUCAUAAUACATT against ZNF107, the median seed-adjusted z-score was inactive: 0.0761. With GGAACGAAAUUUAAGUUUUTT against PTPN12 the median seed-adjusted z-score was inactive: -0.507. With GGACAUAUACUUGCGGGUATT against IARS the median seed-adjusted z-score was inactive: -0.198.
